# Cleaved PARP after 72 h of treatment

From a melanoma drug combination screen (doi:10.1371/journal.pone.0140310); values rounded.

All values are for the listed drug together with docetaxel (0.0005 µM): CC(=O)O[C@@]12CO[C@@H]1C[C@H](O)[C@@]1(C)C(=O)[C@H](O)C3=C(C)[C@@H](OC(=O)[C@H](O)[C@@H](NC(=O)OC(C)(C)C)c4ccccc4)C[C@@](O)([C@@H](OC(=O)c4ccccc4)[C@H]21)C3(C)C

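Human melanoma cell lines in 1,536-well plates were treated with two drugs together for 72 h, then fixed, stained and imaged. Each value is the cleaved-PARP-positive fraction of nuclei relative to DMSO-treated wells, in %, so that 100 equals the control and higher values mean more apoptosis. Concentrations were fixed for each drug; these are the higher of two levels. The file gives one value for each pair and line, without errors, so small differences may be noise. The marker varies much from line to line, for technical or biological reasons.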 Only some of the drugs and lines screened are listed, without regard to their results.

Second drug | UACC-257 | RPMI-7951 | COLO 792 | SK-MEL-30 | SK-MEL-5 | SK-MEL-28
C[C@]1(O)C[C@@H](c2nc(-c3ccc4ccc(-c5ccccc5)nc4c3)c3c(N)nccn32)C1 at 2 µM | 26.0 | 409 | 1320 | 582 | 883 | 417
Cc1cc(Nc2cc(N3CCN(C)CC3)nc(Sc3ccc(NC(=O)C4CC4)cc3)n2)n[nH]1 at 0.03 µM | 294 | 356 | 485 | 655 | 1090 | 596
O=C1NC(=O)/C(=C/c2ccc(-c3ccc(F)cc3O)o2)S1 at 5 µM | 425 | 722 | 372 | 229 | 685 | 399
O=C(O)[C@@H]1[O][Sb](=[O])([O][Sb]2(=[O])[O][C@H]([C@H](O)CO)[C@H](O)[C@H](C(=O)O)[O]2)[O][C@H]([C@H](O)CO)[C@@H]1O (stereo not given in full) at 10 µM | 193 | 498 | 499 | 629 | 1280 | 652
Oc1nc(-c2ccc(C(F)(F)F)cc2)nc2c1CSCC2 at 10 µM | 93.3 | 439 | 663 | 464 | 590 | 1200
CCCCCCCCCCCCCCCCCCOP(=O)([O-])OC1CC[N+](C)(C)CC1 at 2 µM | 51.0 | 793 | 897 | 384 | 929 | 404
CC(=O)c1c(C)c2cnc(Nc3ccc(N4CCNCC4)cn3)nc2n(C2CCCC2)c1=O at 0.2 µM | 127 | 234 | 399 | 151 | 1300 | 429
Cc1cc(N2CCOCC2)cc2[nH]c(-c3c(NC[C@@H](O)c4cccc(Cl)c4)cc[nH]c3=O)nc12 at 1 µM | 99.8 | 439 | 939 | 444 | 3340 | 567
O=C(O)c1ccc2c(c1)nc(Nc1cccc(Cl)c1)c1ccncc12 at 2 µM | 348 | 1150 | 284 | 858 | 3240 | 926
CCN(CC)CCNC(=O)c1c(C)[nH]c(/C=C2\C(=O)Nc3ccc(F)cc32)c1C at 2 µM | 200 | 227 | 833 | 975 | 249 | 281
CN(C)S(=O)(=O)c1ccc2c(c1)/C(=C/c1cc3c([nH]1)CCCC3)C(=O)N2 at 2 µM | 55.4 | 112 | 1610 | 567 | 256 | 309
CC[C@]1(O)C[C@H]2CN(CCc3c([nH]c4ccccc34)[C@@](C(=O)OC)(c3cc4c(cc3OC)N(C=O)[C@H]3[C@@](O)(C(=O)OC)[C@H](OC(C)=O)[C@]5(CC)C=CCN6CC[C@]43[C@@H]65)C2)C1 at 0.0005 µM | 122 | 173 | 1030 | 541 | 1440 | 304
COc1ccc(-c2ccc3c(N4CCOCC4)nc(N4C[C@@H](C)O[C@@H](C)C4)nc3n2)cc1CO at 0.1 µM | 212 | 553 | 522 | 599 | 251 | 358
CN(NC(=O)CC(=O)NN(C)C(=S)c1ccccc1)C(=S)c1ccccc1 at 0.03 µM | 65.8 | 334 | 753 | 538 | 3000 | 1100
COc1cc2c(Oc3ccc4[nH]c(C)cc4c3F)ncnc2cc1OCCCN1CCCC1 at 2 µM | 71.1 | 243 | 1470 | 923 | 1020 | 741
Nc1cccc2c1CN(C1CCC(=O)NC1=O)C2=O (stereo not given) at 5 µM | 128 | 446 | 992 | 314 | 644 | 907
COc1cc(Nc2ncc(F)c(Nc3ccc4c(n3)NC(=O)C(C)(C)O4)n2)cc(OC)c1OC at 2 µM | 108 | 433 | 3870 | 547 | 2560 | 426
O=C(Oc1ccc([N+](=O)[O-])cc1)N1CCC(C(O)(c2ccc3c(c2)OCO3)c2ccc3c(c2)OCO3)CC1 at 5 µM | 144 | 188 | 899 | 619 | 570 | 1100
O=C(/C=C/c1cccnc1)NCCCCC1CCN(C(=O)c2ccccc2)CC1 at 0.05 µM | 37.5 | 125 | 1440 | 681 | 1090 | 769
Cc1cn(-c2cc(NC(=O)c3ccc(C)c(Nc4nccc(-c5cccnc5)n4)c3)cc(C(F)(F)F)c2)cn1 at 1 µM | 314 | 762 | 623 | 442 | 1270 | 269
Cc1ccc(Nc2nccc(N(C)c3ccc4c(C)n(C)nc4c3)n2)cc1S(N)(=O)=O at 2 µM | 125 | 372 | 1870 | 414 | 953 | 741
NC(=O)Nc1cc(-c2cccc(F)c2)sc1C(=O)N[C@H]1CCCNC1 at 0.1 µM | 114 | 1190 | 1390 | 835 | 1520 | 109
Cc1nc(Nc2ncc(C(=O)Nc3c(C)cccc3Cl)s2)cc(N2CCN(CCO)CC2)n1 at 0.02 µM | 47.1 | 547 | 1770 | 467 | 3730 | 694
COc1cc([C@@H]2c3cc4c(cc3[C@@H](O[C@@H]3O[C@@H]5CO[C@@H](C)O[C@H]5[C@H](O)[C@H]3O)[C@H]3COC(=O)[C@H]23)OCO4)cc(OC)c1O at 0.1 µM | 51.3 | 525 | 642 | 826 | 425 | 1020
COCC[n+]1c2c(n(Cc3cnccn3)c1C)C(=O)c1ccccc1C2=O at 0.002 µM | 306 | 217 | 521 | 388 | 814 | 1000
NC1(c2ccc(-c3nc4ccn5c(=O)[nH]nc5c4cc3-c3ccccc3)cc2)CCC1 at 2 µM | 53.6 | 304 | 1110 | 801 | 3470 | 389
CCCCCCCCc1ccc(CCC(N)(CO)CO)cc1 at 10 µM | 273 | 2740 | 10200 | 4260 | 471 | 1660
Nc1ccn([C@@H]2O[C@H](CO)[C@@H](O)C2(F)F)c(=O)n1 at 0.002 µM | 85.1 | 353 | 932 | 305 | 1750 | 462
Cn1cnc2c(F)c(Nc3ccc(Br)cc3Cl)c(C(=O)NOCCO)cc21 at 0.075 µM | 100 | 199 | 319 | 396 | 871 | 219
CC(C)C[C@H](NC(=O)[C@H](Cc1ccccc1)NC(=O)c1cnccn1)B(O)O at 0.005 µM | 49.0 | 2980 | 752 | 1510 | 2100 | 179

3 of the entries, repeated:

Second drug,UACC-257,RPMI-7951,COLO 792,SK-MEL-30,SK-MEL-5,SK-MEL-28
NC1(c2ccc(-c3nc4ccn5c(=O)[nH]nc5c4cc3-c3ccccc3)cc2)CCC1 at 2 µM,53.6,304,1110,801,3470,389
O=C(/C=C/c1cccnc1)NCCCCC1CCN(C(=O)c2ccccc2)CC1 at 0.05 µM,37.5,125,1440,681,1090,769
CC(=O)c1c(C)c2cnc(Nc3ccc(N4CCNCC4)cn3)nc2n(C2CCCC2)c1=O at 0.2 µM,127,234,399,151,1300,429